Data source: PubChem BioAssay AID1508597 (Cure First, 2020)
This is a random part of the about 2,100 reagents, under one of the conditions tested. 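Calls flag viability under 80% in either arm, not effects specific to rucaparib; the reference for percent is not stated.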 Unmarked entries are inactive. A reagent listed more than once was tested more than once; the source does not tell the runs apart. Not stated in the record: the 100% reference.

Test: 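Knock-downs altering ovarian cancer cell survival with or without PARP inhibitor rucaparib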 (primary screen)
System: human ovarian carcinoma lines grown from tumours: OCI-P5x (papillary serous) and OCI-C5x (clear cell)
Knock-down reagent: siRNA pool against human genes, 1.25 pmol siRNA per well
Duration: 72 h or 96 h, depending on the cell culture
Challenge: rucaparib 20 µM (about IC30) or vehicle, present until read-out
Rucaparib or vehicle: Rucaparib
Cell line: OCI-C5x (clear cell)
Measurement: 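Luminescent ATP-based viability assay read 72 or 96 h after transfection, depending on culture, given as normalised percent viability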
Direction: viability, normalised: higher = more viable cells remaining
Rule for the call: 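a well counts as a hit if its normalised viability is under 80 percent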
Meaning of the calls: active = viability under 80%; inactive = viability 80% or more

target,technical replicate,"viability, normalised (%)"
RECQL4,1,64.4 (active)
RECQL4,1,56.7 (active)
RECQL4,1,102
RECQL4,2,78.3 (active)
RECQL4,2,64.5 (active)
RECQL4,2,66.4 (active)
RECQL4,3,64.8 (active)
RECQL4,3,77 (active)
RECQL4,3,35.9 (active)
ARID2,1,48 (active)
ARID2,2,56.3 (active)
ARID2,3,53.9 (active)
REV3L,1,63.9 (active)
REV3L,2,47.8 (active)
REV3L,3,52 (active)
PYGO1,1,31.7 (active)
PYGO1,2,41 (active)
PYGO1,3,37.5 (active)
CDKN2A,1,33.9 (active)
CDKN2A,2,37 (active)
CDKN2A,3,34.6 (active)
TTK,1,49 (active)
TTK,2,65.3 (active)
TTK,3,41.8 (active)
AFF3,1,57.6 (active)
AFF3,2,50 (active)
AFF3,3,48.5 (active)
CPS1,1,47.6 (active)
CPS1,2,78.3 (active)
CPS1,3,61.2 (active)
BRCA2,1,70.9 (active)
BRCA2,1,53.2 (active)
BRCA2,1,50.1 (active)
BRCA2,2,37.4 (active)
BRCA2,2,53.5 (active)
BRCA2,2,60 (active)
BRCA2,3,38.6 (active)
BRCA2,3,62.6 (active)
BRCA2,3,67.7 (active)
KPNA2,1,61.8 (active)
KPNA2,2,63.6 (active)
KPNA2,3,69.8 (active)
SMAD1,1,47.8 (active)
SMAD1,2,45.1 (active)
SMAD1,3,50.5 (active)
ASXL1,1,81.8
ASXL1,2,48.5 (active)
ASXL1,3,46.1 (active)
MLH3,1,57.9 (active)
MLH3,2,51.2 (active)
MLH3,3,52.8 (active)
PMS2,1,95
PMS2,2,103
PMS2,3,133
CLCF1,1,52.1 (active)
CLCF1,2,60.9 (active)
CLCF1,3,51.6 (active)

5 entries from above, ordered by “viability, normalised (%)”, lowest first:
target,technical replicate,"viability, normalised (%)"
BRCA2,2,37.4 (active)
BRCA2,1,50.1 (active)
BRCA2,1,53.2 (active)
BRCA2,2,53.5 (active)
BRCA2,1,70.9 (active)
